Experimental data as given in paper PMC7835017.
No constants are given. Whether binding was seen depends on the method and setting. For part of these data: Binding seen in cells or lysates may run through a third protein. Some entries that bind do so weakly or less than the wild type. Sequences can lack the tags named with a protein.

Sequences of proteins named here, by UniProt entry; tags and fusion partners are left off.
UniProt O95816: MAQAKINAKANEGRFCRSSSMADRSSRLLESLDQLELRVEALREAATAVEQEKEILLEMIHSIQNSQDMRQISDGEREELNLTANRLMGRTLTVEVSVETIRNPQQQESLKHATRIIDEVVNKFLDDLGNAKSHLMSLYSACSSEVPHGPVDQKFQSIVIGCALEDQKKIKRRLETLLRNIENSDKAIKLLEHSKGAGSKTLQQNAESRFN

T1: Fbxo7 expressed in HEK 293A cells (precipitated by anti-Flag antibody) (UniProt Q9Y3I1)
T1 sequence: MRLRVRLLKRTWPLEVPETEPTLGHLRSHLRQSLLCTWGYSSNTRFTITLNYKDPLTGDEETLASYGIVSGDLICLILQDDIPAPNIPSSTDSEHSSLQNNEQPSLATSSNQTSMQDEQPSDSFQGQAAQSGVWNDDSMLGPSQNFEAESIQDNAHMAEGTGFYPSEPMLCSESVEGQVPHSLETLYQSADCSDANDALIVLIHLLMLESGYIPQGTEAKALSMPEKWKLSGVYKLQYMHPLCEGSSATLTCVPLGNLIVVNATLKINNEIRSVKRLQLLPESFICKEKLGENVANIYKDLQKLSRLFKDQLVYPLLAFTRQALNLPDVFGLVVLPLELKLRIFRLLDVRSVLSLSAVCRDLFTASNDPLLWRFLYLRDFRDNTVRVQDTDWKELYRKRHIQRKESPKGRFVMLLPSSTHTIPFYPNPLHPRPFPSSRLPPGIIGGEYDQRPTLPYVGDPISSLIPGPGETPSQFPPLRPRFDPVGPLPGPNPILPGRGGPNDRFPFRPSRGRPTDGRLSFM

T2: GST-Fbxo7 (UniProt Q9Y3I1)
T2 sequence: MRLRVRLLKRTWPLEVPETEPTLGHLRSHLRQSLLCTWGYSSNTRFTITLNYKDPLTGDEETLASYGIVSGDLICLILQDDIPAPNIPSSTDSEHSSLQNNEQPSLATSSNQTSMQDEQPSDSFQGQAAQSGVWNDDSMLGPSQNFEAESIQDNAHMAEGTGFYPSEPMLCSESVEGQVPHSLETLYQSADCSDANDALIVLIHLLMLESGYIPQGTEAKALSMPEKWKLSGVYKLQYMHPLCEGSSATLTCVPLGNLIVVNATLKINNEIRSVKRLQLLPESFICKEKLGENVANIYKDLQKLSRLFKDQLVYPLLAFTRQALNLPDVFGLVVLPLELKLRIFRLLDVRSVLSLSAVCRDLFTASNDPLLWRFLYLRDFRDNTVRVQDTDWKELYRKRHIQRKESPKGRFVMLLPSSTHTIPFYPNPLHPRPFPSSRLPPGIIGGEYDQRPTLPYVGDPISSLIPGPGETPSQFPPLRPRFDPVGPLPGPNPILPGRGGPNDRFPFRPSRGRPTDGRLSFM


Key:
[1] = molecular target: T1, Fbxo7 expressed in HEK 293A cells (precipitated by anti-Flag antibody); assay: co-IP; HEK 293A cells co-transfected with Fbxo7 (or its mutants) and Bag2 or Bag5; Fbxo7 precipitated with anti-Flag (Figure 4B); reciprocal precipitation with anti-Flag or anti-Myc (Figure 4C, D); western blot
GST-Fbxo7 = molecular target: T2, GST-Fbxo7; assay: pull-down; in vitro binding assay: bacterially expressed GST-Fbxo7 or its mutants co-incubated with bacterially expressed His-Bag2; pulled-down proteins blotted with anti-Bag2 and anti-GST; both purified

| binding [1] | binding (GST-Fbxo7) | Molecule |
| --- | --- | --- |
| binds | – | Bag2 expressed in HEK 293A cells (from UniProt O95816 1-211) |
| – | binds | His-Bag2 (from UniProt O95816 1-211) |
| no binding | – | Bag5 expressed in HEK 293A cells (protein, UniProt Q9UL15 1-447) MDMGNQHPSISRLQEIQKEVKSVEQQVIGFSGLSDDKNYKKLERILTKQLFEIDSVDTEGKGDIQQARKRAAQETERLLKELEQNANHPHRIEIQNIFEEAQSLVREKIVPFYNGGNCVTDEFEEGIQDIILRLTHVKTGGKISLRKARYHTLTKICAVQEIIEDCMKKQPSLPLSEDAHPSVAKINFVMCEVNKARGVLIALLMGVNNNETCRHLSCVLSGLIADLDALDVCGRTEIRNYRREVVEDINKLLKYLDLEEEADTTKAFDLRQNHSILKIEKVLKRMREIKNELLQAQNPSELYLSSKTELQGLIGQLDEVSLEKNPCIREARRRAVIEVQTLITYIDLKEALEKRKLFACEEHPSHKAVWNVLGNLSEIQGEVLSFDGNRTDKNYIRLEELLTKQLLALDAVDPQGEEKCKAARKQAVRLAQNILSYLDLKSDEWEY |
